The exact form of at least one protein or probe is not confirmed. Where a protein sequence is shown, tags need not be part of it.
Biological target: T1, SoxR (Streptomyces coelicolor) (UniProt Q9S255)
T1 sequence (looked up, limits assumed): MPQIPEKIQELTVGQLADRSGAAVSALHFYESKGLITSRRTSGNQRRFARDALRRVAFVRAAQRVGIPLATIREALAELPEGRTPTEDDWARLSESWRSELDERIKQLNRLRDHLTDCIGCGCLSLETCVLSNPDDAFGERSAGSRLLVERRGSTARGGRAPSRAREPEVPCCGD
Experiment: EMSA
Details: no binding at highest SoxR tested; EMSA: 10 mM Tris-HCl pH 8, 75 mM KCl, 0.1 mM DTT, 10% glycerol, 2 mM MgCl2, 0.1 ug poly(dI)-poly(dC), 2 mM dAMP, 30 uL, 6 fmol probe, SoxR 0-20 nM, 15 min 25 C; recombinant protein; protein details: His-tag; label: DIG end label; probe letters rebuilt from the primers and the genome

GTACGACGGTGGGCAAGTCACTGCTCCTGATGGGCGGCGAGTAGGCCCGCGCCGACCGGCGGCACCAAGGGATTGACAACACCGGAGCGTCAATCCTGATGATCTTGGTGTTGGTCCCGACCGGCCGGGCGATGCCATGCTGGGCCCCGCCCCACAGGCGTGCAGCGAGAG (double strand) [SCO0321 upstream probe]
Kd: > 20 nM

Source: PMC4146615
